Assay results reported in PubChem BioAssay AID1347076 (National Center for Advancing Translational Sciences (NCATS), 2019).
Values joined by “and” are separate entries in the source; they are usually repeats but may differ in a detail not shown here. Identical values can stand only once. Screen size: about 400,000 compounds; about 13,000 (3.2%) were called active. The shares of active, inactive and inconclusive entries below differ from those in the screen. The call rests on the fitted dose curve; in most records, active means well fitted cell-killing curve with a large enough effect; inconclusive means small, poorly fitted or top-dose-only effect, or effect the other way; inactive means flat fitted curve, though single readings scatter. Where the call is inconclusive, the potency comes from a doubtful curve fit.
Potency means the concentration at half of the fitted maximal effect.

Assay: qHTS assay for MDR1-selective chemotherapeutics: Primary screen using the drug-selected MDR subline cells KB-V1; further: nearly all actives have a fitted effect of over 60% in size
Conditions: KB-V1 MDR cells viability, CellTiter-Glo, 72 h; series mostly up to 46.1 µM
Method in brief: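 Luminescent ATP read-out (CellTiter-Glo, 10 min) measures survival of drug-selected KB-V1 MDR cells after 72 h, 37 degrees C compound exposure. Medium: phenol-red-free DMEM, 10% FBS. Values from fitted concentration-response curves.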
For O=C(CCCc1nc(-c2ccc(Cl)cc2)no1)Nc1cccnc1, the Potency was inconclusive: 29.1 µM [cytotoxic, single point]. With N#C/C(=C\Nc1ccc2c(c1)OCCO2)c1nc2ccccc2[nH]1 the Potency was active: 14.6 µM. In the case of CN(C)c1ccc(C(=O)Nc2nnc(-c3ccc(Cl)cc3)o2)cc1, the Potency is reported as “inactive”. For CN(C)CC(=O)Nc1nc(-c2ccccc2)cs1, the Potency was “inactive”. With Cc1c(O)c(CN(C)C)cc2c1oc(=O)c1ccccc12 the Potency was inconclusive: 18.4 µM [cytotoxic, single point]. With O=C(NC1CCCCCC1)c1cc(S(=O)(=O)N2CCOCC2)ccc1N1CCCCC1 the Potency was active: 8.2 µM. For COc1ccc(C2c3cc(OC)c(OC)cc3CC(=O)N2c2ccc(C)c(F)c2)cc1 (centres undefined), the Potency was “inactive”. With CC1(C(=O)NCc2ccc(F)c(F)c2)Cc2c(-c3ccc4c(c3)OCO4)ccnc2O1 (centres undefined) the Potency was inconclusive: 11.6 µM [cytotoxic, partial curve]. In the case of O=C(CC1SC(N2CCOCC2)=NC1=O)Nc1cccc(C(F)(F)F)c1 (centres undefined), the Potency is reported as inconclusive: 14.6 µM [cytotoxic, single point]. For CC1(C)CCc2cc(-c3ccn(S(=O)(=O)c4ccccc4Cl)n3)ccc2O1, the Potency was inconclusive: 29.1 µM [cytotoxic, single point]. In the case of COc1ccc(OC)c(Cc2nnc(CCC(=O)NCc3nc4ccccc4s3)o2)c1, the Potency is reported as “inactive”. For CCOC(=O)C(=Cc1ccc(-c2ccsc2C(=O)OC)o1)C(=O)OCC, the Potency was inconclusive: 18.4 µM [cytotoxic, single point]. In the case of Cc1ccc(S(=O)(=O)N(CC(=O)NCc2cccs2)c2ccccc2)cc1, the Potency is reported as inconclusive: 8.2 µM [cytotoxic, partial curve, poor fit]. With COc1ccc(C2CC(=O)c3cnc(N)nc3C2)c(OC)c1 (centres undefined) the Potency was inconclusive: 32.6 µM [cytotoxic, single point]. With CC(C)CN(CC(C)C)c1ccc(/C=N/n2cnnc2)cc1[N+](=O)[O-] the Potency was active: 20.6 µM. In the case of C[C@@H]1CN([C@H](C)CO)C(=O)c2cc(NS(=O)(=O)c3ccc(F)cc3)ccc2O[C@@H]1CN(C)Cc1ccc(Cl)c(Cl)c1, the Potency is reported as “inactive”. For COc1ccc(S(=O)(=O)N2CCCCCC2)cc1C(=O)NCc1ccco1, the Potency was “inactive”. For Cc1nc2ccc(NS(=O)(=O)c3ccc(C)c(C)c3)cc2s1, the Potency was inconclusive: 18.4 µM [cytotoxic, single point]. In the case of C#CCNC(=O)C[C@@H]1C[C@@]2(C(=O)OC)CCCCC=C2N(CCc2ccc(OC)c(OC)c2)C1=O, the Potency is reported as inconclusive: 23.1 µM [cytotoxic, partial curve, poor fit]. In the case of Cc1ccc2c(c1)c1c(n2CC(O)CN2CCCCCC2)CCCC1 (centres undefined), the Potency is reported as “inactive”. With Cc1ccc(CO)cc1Nc1ncnc2onc(-c3ccc(F)cc3)c12 the Potency was “inactive”. In the case of CN(C)[C@@H](CO)c1nnc([C@H](CCC(=O)O)NC(=O)C2CCNCC2)o1, the Potency is reported as “inactive”. With CCCCCn1c(CN2CCCCC2CC)nc2c1c(=O)n(C)c(=O)n2C (centres undefined) the Potency was “inactive”. In the case of O=C(NCCC1CCCCN1S(=O)(=O)c1ccc(F)cc1)C(=O)NCC1CCCO1 (centres undefined), the Potency is reported as “inactive”. For COc1ccc([C@H]2CC(=O)C=C(c3cccc(NC(C)=O)c3)C2)cc1, the Potency was “inactive”. For CN1C(=O)C(N=Nc2ccc([N+](=O)[O-])cc2)SC1=S (centres undefined), the Potency was inconclusive: 20.6 µM [cytotoxic, partial curve, poor fit]. In the case of Cc1cc(C(=O)N2CCC2(C)C(=O)Nc2ccc3[nH]ncc3c2)nn1C (centres undefined), the Potency is reported as “inactive”. With O=C(CCc1ccc(O)c(O)c1)NNC(=S)NCCc1ccccc1 the Potency was “inactive”. With Cc1cccc(NC(=O)CN(C)C(C)C(=O)Nc2ccc(S(=O)(=O)N3CCCC3)cc2)c1C (centres undefined) the Potency was inconclusive: 11.6 µM [cytotoxic, partial curve, poor fit]. With CC1(C)CC2CC(C)(CN2C(=O)c2cc(-c3ccc(F)cc3)on2)C1 (centres undefined) the Potency was “inactive”. In the case of CCC(=O)NN1CCN(c2ccncc2S(=O)(=O)N2CCCCC2)CC1, the Potency is reported as “inactive”. In the case of CC(C)CC(=O)N(c1nnc(-c2cccnc2)s1)C1CCCC1, the Potency is reported as inconclusive: 16.4 µM [cytotoxic, single point]. For CC1=C(C(=O)Nc2ccc(F)cc2F)C2(CCN(C(C)C)CC2)OC1=O, the Potency was inconclusive: 0.517 µM [cytotoxic, full curve, poor fit]. For CC(C)OC(=O)CSc1nnc(-c2ccncc2)n1N, the Potency was inconclusive: 29.1 µM [rising, single point]. For c1ccc(CCNc2c3c(nc4ncnn24)CCC3)cc1, the Potency was active: 11.6 µM. For S=C(Nc1ccccc1Cl)N1CCN(Cc2ccccc2)CC1, the Potency was inconclusive: 29.1 µM [cytotoxic, single point]. In the case of COc1cc(C(=O)O[C@H]2CC(C)=CC[C@@]3(C)CC[C@@](O)(C(C)C)[C@H]23)ccc1O, the Potency is reported as “inactive”. With Cc1cccc(C(=O)N/N=C/c2ccc[nH]2)c1 the Potency was “inactive”. In the case of Cc1ccc2[nH]c(C(=O)N3CCN(C=O)CC3)cc2c1, the Potency is reported as inconclusive: 0.461 µM [rising, full curve, poor fit]. For O=C(Nc1ncc([N+](=O)[O-])s1)c1cccs1, the Potency was active: 18.4 µM and active: 16.4 µM. With CCCNC(=O)C1(C)CCCN(C(=O)c2ccccc2OC)C1 (centres undefined) the Potency was “inactive”. In the case of Cc1oc(-c2cccc(Cl)c2)nc1CS(=O)(=O)CC(=O)NC1CCCC1, the Potency is reported as “inactive”. With CC(=O)Nc1cccc(N2C(=O)CC(N3CCC(C(=O)N4CCCCC4)CC3)C2=O)c1 (centres undefined) the Potency was inconclusive: 9.2 µM [rising, partial curve]. In the case of O=C(CCN1CCOCC1)NNC(=O)Nc1cccc(C(F)(F)F)c1, the Potency is reported as “inactive”. For CN(C)CCCN1c2ccc3ccccc3c2Sc2cccc(Cl)c21, the Potency was active: 14.6 µM. For O=C1CCCN2N=C(SCC(=O)N3N=C(c4ccc(Br)cc4)CC3c3ccc(F)cc3)SC2=N1 (centres undefined), the Potency was inconclusive: 2.59 µM [cytotoxic, partial curve, poor fit]. With CCOc1cc(-c2nc(-c3ccc(OC)cc3)no2)cc(OCC)c1OCC the Potency was “inactive”. In the case of Cn1c(=O)c2c(nc(NN=C3CCCC3)n2C)n(C)c1=O, the Potency is reported as “inactive”. With CCOC(=O)[C@]12CCCC=C1N(Cc1cccc3ccccc13)C(=O)[C@H](CC(=O)N1CCN(C(=O)C3CC3)CC1)C2 the Potency was inconclusive: 5.17 µM [cytotoxic, partial curve].
